Test results published in patent US20200325233A1.
Substitutions are numbered along the chain they refer to. No constants are given. Whether binding was seen depends on the method and setting. Some entries that bind do so weakly or less than the wild type. Values belong to the binder of their own block, whether it stands above or below them.

By UniProt entry, the sequences of proteins in these tests, tags left out. Where a name states a change or a piece, a line headed by the entry shows the natural chain unless it says otherwise.
UniProt Q96E93: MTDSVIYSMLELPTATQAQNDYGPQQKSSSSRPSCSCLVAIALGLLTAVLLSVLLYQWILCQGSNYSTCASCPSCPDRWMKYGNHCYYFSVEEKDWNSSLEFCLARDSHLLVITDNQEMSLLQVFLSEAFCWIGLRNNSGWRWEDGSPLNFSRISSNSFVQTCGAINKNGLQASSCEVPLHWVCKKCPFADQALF

Legend:
[1] = molecular target: T1, cyno KLRG1 extracellular domain (ECD) (cynomolgus); test: hybridoma screening for binding to cyno KLRG1 ECD
T1 sequence (chain, biotinylated in the Octet assay (site not stated)): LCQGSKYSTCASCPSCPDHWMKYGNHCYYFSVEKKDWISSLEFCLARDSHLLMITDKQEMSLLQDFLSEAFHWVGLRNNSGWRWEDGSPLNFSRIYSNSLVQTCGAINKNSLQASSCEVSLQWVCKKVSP

[2] = molecular target: human KLRG1 extracellular domain (ECD) (human) (UniProt Q96E93); test: hybridoma screening (Example 2)
[3] = molecular target: human KLRG1 extracellular domain (ECD) (human) (UniProt Q96E93); test: hybridoma screening for binding to human KLRG1 ECD
peptide PLNFSRI [4] = molecular target: T2, peptide PLNFSRI; test: peptide mapping
T2 sequence (peptide): PLNFSRI

peptide PLNFSRI [5] = molecular target: T2, peptide PLNFSRI; test: peptide mapping (FIG. 1 legend)

binding [1]: binds
binding [2]: binds
binding [3]: binds
B1: ABC_G1D01 (antibody, V domains shown)
VH: EVQLQQSGPELVKPGASVKMSCKASGYTFTDYNIHWVKQSHGKSLEWIGFFNPKNGVTINNQNFKGKAALTVNKSSSTAYMELRRLTSEDSAVYYCARDYYGTAWFAYWGQGTLVTVSA
VL: DIVMSQSPSSLAVSVGEKVTMSCRSSQSLLYSSNQKNYLAWYQQKPGQSPKLLIYWASTRESGVPDRFTGSGSGTDFTLTISSVKAEDLAVYYCQQFYSYPTFGGGTKLEIK

binding (peptide PLNFSRI [4]): binds
binding (peptide PLNFSRI [5]): binds
B2: ABC_G1D03 (antibody, V domains shown)
VH: EVQLQQSGPELVKPGASVKMSCKTSGYTFTDHNMHWLKQSHGKGLEWFGFINPNTGVTRYNQKFNGKATLTINKSSSTAYLDLRSLTSEDSAVYYCTRDYYGSAWFAYWGQGTLVTVSA
VL: B1 VL with S9A, L11Q, A12T, R24K, S28T, N34D, F97Y, S99N
